{"source": "PubChem BioAssay AID1259254 (NCATS, 2017)", "aim": "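Gene knock-downs that lead to re-replication, shown by excess G2 DNA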 (primary screen)", "cells": "human HCT116 colorectal cancer cells", "reagent": "single siRNA against human genes", "time to read-out": "3 days", "detection": "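Nuclei stained with Hoechst and imaged; cell-cycle phase assigned by DNA content; G2 share scaled per plate, non-targeting siRNA 0%, GMNN siRNA 100%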", "direction": "G2 robust z-score and G2 cells, % of GMNN control: higher = more G2 cells, more excess DNA replication", "hit rule": "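An siRNA counts as active if its G2 robust z-score lies at least 5 MADs above the screen median; here such calls match roughly 38% of GMNN control or more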", "note": "This is an unselected part of about 59,000 deposited reagents. About 1,550 of all reagents (2.6%) were called active. 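G2 share is only a proxy for re-replication; each gene was hit by three separate siRNAs, and active genes were retested.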 The numbers tell different reagents against one gene apart. Further read-outs or replicates are left out here. Reagent sequences are not shown. Not stated in the record: the amount of reagent."}
{"Target gene":"REG1B","reagent no.":1,"G2 robust z-score":0.531,"G2 cells, % of GMNN control":6.7,"call":"inactive"}
{"Target gene":"REG1B","reagent no.":2,"G2 robust z-score":-0.558,"G2 cells, % of GMNN control":-0.961,"call":"inactive"}
{"Target gene":"REG1B","reagent no.":3,"G2 robust z-score":0.0139,"G2 cells, % of GMNN control":3.07,"call":"inactive"}
{"Target gene":"CTNNA2","reagent no.":1,"G2 robust z-score":4.5,"G2 cells, % of GMNN control":34.6,"call":"inactive"}
{"Target gene":"CTNNA2","reagent no.":2,"G2 robust z-score":-0.0109,"G2 cells, % of GMNN control":2.89,"call":"inactive"}
{"Target gene":"CTNNA2","reagent no.":3,"G2 robust z-score":1.58,"G2 cells, % of GMNN control":14.1,"call":"inactive"}
{"Target gene":"DUSP4","reagent no.":1,"G2 robust z-score":0.312,"G2 cells, % of GMNN control":5.16,"call":"inactive"}
{"Target gene":"DUSP4","reagent no.":2,"G2 robust z-score":1.22,"G2 cells, % of GMNN control":11.6,"call":"inactive"}
{"Target gene":"DUSP4","reagent no.":3,"G2 robust z-score":1.08,"G2 cells, % of GMNN control":10.5,"call":"inactive"}
{"Target gene":"FNBP1L","reagent no.":1,"G2 robust z-score":0.0937,"G2 cells, % of GMNN control":3.63,"call":"inactive"}
{"Target gene":"FNBP1L","reagent no.":2,"G2 robust z-score":0.81,"G2 cells, % of GMNN control":8.66,"call":"inactive"}
{"Target gene":"FNBP1L","reagent no.":3,"G2 robust z-score":-0.235,"G2 cells, % of GMNN control":1.31,"call":"inactive"}

2 entries from above, limited to “G2 cells, % of GMNN control”:
DUSP4 #3	10.5
FNBP1L #1	3.63

Further records follow.
{"Target gene":"LOC728684 (retired record)","reagent no.":1,"G2 robust z-score":1.42,"G2 cells, % of GMNN control":12.9,"call":"inactive"}
{"Target gene":"LOC728684 (retired record)","reagent no.":2,"G2 robust z-score":2.09,"G2 cells, % of GMNN control":17.7,"call":"inactive"}
{"Target gene":"LOC728684 (retired record)","reagent no.":3,"G2 robust z-score":0.546,"G2 cells, % of GMNN control":6.81,"call":"inactive"}
{"Target gene":"GARNL3","reagent no.":1,"G2 robust z-score":0.648,"G2 cells, % of GMNN control":7.53,"call":"inactive"}
{"Target gene":"GARNL3","reagent no.":2,"G2 robust z-score":-0.195,"G2 cells, % of GMNN control":1.6,"call":"inactive"}
{"Target gene":"GARNL3","reagent no.":3,"G2 robust z-score":-0.35,"G2 cells, % of GMNN control":0.502,"call":"inactive"}
{"Target gene":"ADAMTS4","reagent no.":1,"G2 robust z-score":0.476,"G2 cells, % of GMNN control":6.31,"call":"inactive"}
{"Target gene":"ADAMTS4","reagent no.":2,"G2 robust z-score":-0.768,"G2 cells, % of GMNN control":-2.44,"call":"inactive"}
{"Target gene":"ADAMTS4","reagent no.":3,"G2 robust z-score":-0.573,"G2 cells, % of GMNN control":-1.07,"call":"inactive"}
{"Target gene":"UGT2B17","reagent no.":1,"G2 robust z-score":4.92,"G2 cells, % of GMNN control":37.6,"call":"inactive"}
{"Target gene":"UGT2B17","reagent no.":2,"G2 robust z-score":4.21,"G2 cells, % of GMNN control":32.6,"call":"inactive"}
{"Target gene":"UGT2B17","reagent no.":3,"G2 robust z-score":0.178,"G2 cells, % of GMNN control":4.22,"call":"inactive"}
{"Target gene":"AMOTL1","reagent no.":1,"G2 robust z-score":-0.473,"G2 cells, % of GMNN control":-0.364,"call":"inactive"}
{"Target gene":"AMOTL1","reagent no.":2,"G2 robust z-score":-0.0628,"G2 cells, % of GMNN control":2.53,"call":"inactive"}
{"Target gene":"AMOTL1","reagent no.":3,"G2 robust z-score":-0.487,"G2 cells, % of GMNN control":-0.462,"call":"inactive"}
{"Target gene":"NRTN","reagent no.":1,"G2 robust z-score":1.52,"G2 cells, % of GMNN control":13.7,"call":"inactive"}
{"Target gene":"NRTN","reagent no.":2,"G2 robust z-score":2.73,"G2 cells, % of GMNN control":22.2,"call":"inactive"}
{"Target gene":"NRTN","reagent no.":3,"G2 robust z-score":-0.0957,"G2 cells, % of GMNN control":2.29,"call":"inactive"}
